{
  "source": "patent US12129509B2",
  "about": "“Apparatus, systems, and methods for determining the susceptibility of infectious agents to anti-infectives” (priority 2018, dated 2024)",
  "tested_on": "E. coli of an unknown strain",
  "assay": "pH growth curves of E. coli with Levofloxacin in diagnostic device 102 (FIG. 6)",
  "assay_type": "cell-based",
  "description": "FIG. 6 illustrates pH growth curves of E. coli in the presence of various concentrations of the antibiotic Levofloxacin. The growth curves were generated using a computing device 158 coupled to a parameter analyzer 156 coupled to the diagnostic device 102. Similar types of growth curves can also be generated using the computing device 158 coupled to the parameter analyzer 156 coupled to the diagnostic device 202. An inoculum solution 110 comprising E. coli of an unknown strain (diluted in Mueller Hinton (MH) broth) was introduced to the sample receiving space 112 of the diagnostic device 102. The inoculum solution 110 was allowed to fill the plurality wells 120 of the diagnostic device 102 including the growth control wells 134 and a number of active electrode wells 136. A water immiscible liquid 152 was then introduced into the sample receiving space 112 to seal the wells 120 and the entire diagnostic device 102 was incubated at an elevated temperature. The computing device 158 generated the growth curves based on a change in the pH of the inoculum solution 110 within a growth control well 134 and three active electrode wells 136. The growth control well 134 comprised a pH electrode 130 within the well and was devoid of the antibiotic. […]",
  "note": "For at least one compound, name, drawing or mass did not settle the structure.",
  "data": [
    {"smiles": "C[C@H]1COc2c(N3CCN(C)CC3)c(F)cc3c(=O)c(C(=O)O)cn1c23", "note": "[Levofloxacin]", "values": [
      {"measurement": "growth of E. coli in active electrode wells", "setting": "Levofloxacin at 1 μg/mL, 2 μg/mL and 4 μg/mL, pH growth curves substantially flat lines", "value": "no noticeable growth"},
      {"measurement": "susceptibility of the strain", "setting": "based on MIC from pH growth curves", "value": "susceptible or non-resistant"}
    ]}
  ]
}
